No constants are given. Whether binding was seen depends on the method and setting. In cells and extracts the contact can be indirect. Here binding means that the protein was enriched with, or labelled near, the bait; the list need not be complete. Sequences can lack the tags named with a protein.

This experiment addresses T1, Flag-hnRNP F (UniProt P52597).
T1 sequence: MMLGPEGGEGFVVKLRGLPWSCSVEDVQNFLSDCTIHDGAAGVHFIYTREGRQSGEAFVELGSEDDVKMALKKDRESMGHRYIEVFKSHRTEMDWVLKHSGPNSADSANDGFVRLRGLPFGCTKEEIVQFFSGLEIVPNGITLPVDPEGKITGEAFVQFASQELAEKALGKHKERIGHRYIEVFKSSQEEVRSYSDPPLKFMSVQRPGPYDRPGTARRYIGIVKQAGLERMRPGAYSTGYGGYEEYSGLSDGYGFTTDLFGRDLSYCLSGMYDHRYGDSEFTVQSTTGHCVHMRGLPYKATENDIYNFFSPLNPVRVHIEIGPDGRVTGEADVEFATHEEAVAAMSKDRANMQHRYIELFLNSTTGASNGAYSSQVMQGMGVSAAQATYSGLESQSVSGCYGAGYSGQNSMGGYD
The experiment is described as follows: affinity purification with mass spectrometry; cells transfected with Flag-ECD or Flag-hnRNP F (Flag vector as negative control) for 48 h; anti-Flag co-IP on protein A/G agarose, SDS-PAGE, silver stain, differential bands digested and analysed by nano-LC-MS/MS; cell line not stated.

B1: ZFP91 (endogenous) (enzyme, UniProt Q96JP5 1-570)
chain: MPGETEEPRPPEQQDQEGGEAAKAAPEEPQQRPPEAVAAAPAGTTSSRVLRGGRDRGRAAAAAAAAAVSRRRKAEYPRRRRSSPSARPPDVPGQQPQAAKSPSPVQGKKSPRLLCIEKVTTDKDPKEEKEEEDDSALPQEVSIAASRPSRGWRSSRTSVSRHRDTENTRSSRSKTGSLQLICKSEPNTDQLDYDVGEEHQSPGGISSEEEEEEEEEMLISEEEIPFKDDPRDETYKPHLERETPKPRRKSGKVKEEKEKKEIKVEVEVEVKEEENEIREDEEPPRKRGRRRKDDKSPRLPKRRKKPPIQYVRCEMEGCGTVLAHPRYLQHHIKYQHLLKKKYVCPHPSCGRLFRLQKQLLRHAKHHTDQRDYICEYCARAFKSSHNLAVHRMIHTGEKPLQCEICGFTCRQKASLNWHMKKHDADSFYQFSCNICGKKFEKKDSVVAHKAKSHPEVLIAEALAANAGALITSTDILGTNPESLTQPSDGQGLPLLPEPLGNSTSGECLLLEAEGMSKSYCSGTERVSLMADGKIFVGSGSSGGTEGLVMNSDILGATTEVLIEDSDSAGP
With B1, the binding entry is recorded as “binds”.

The values are drawn from PMC5924763.
